In PMC5996148 one finds binding signal data, which are given here for one sequence.

The other results are listed elsewhere or left out.

What all share (experiment): protein microarray (ProtoArray v5.0), streptavidin-Alexa Fluor 647
Conditions in all cases: 3'-biotin; 20 mM Tris (pH 7.5), 5 mM MgCl2, 100 mM KCl, 0.1% Tween-20, A/T-rich and random oligonucleotide blockers; temperature not stated; high values mean tight binding

For experiment [1], the system named is Sodium channel subunit beta-1 (human).
For experiment [2], the system named is Sodium/glucose cotransporter 2 (human).
The subject of experiment [3] is Solute carrier family 22 member 12 (human).
In experiment [4] the test system is Solute carrier family 35 member E2 (human).
The test system of experiment [5] is Solute carrier family 35 member F2 (human).
Experiment [6] concerns Sperm protein associated with the nucleus on the X chromosome N4 (human).
For experiment [7], the system named is Spermatid nuclear transition protein 4 (human).
The subject of experiment [8] is Spermatogenesis- and oogenesis-specific basic helix-loop-helix-containing protein 2 (human).
Experiment [9] relates to Spermatogenesis-associated protein 7 (human).
In experiment [10] the test system is Spermine synthase (human).
For experiment [11], the system named is StAR-related lipid transfer protein 4 (human).
For experiment [12], the system named is StAR-related lipid transfer protein 5 (human).
The test system of experiment [13] is Stathmin (human).
Experiment [14] relates to Sterol-4-alpha-carboxylate 3-dehydrogenase, decarboxylating (human).
Experiment [15] relates to Suppressor of SWI4 1 homolog (human).
For experiment [16], the system named is Suprabasin (human).
The subject of experiment [17] is Synaptonemal complex protein 2-like (human).
For experiment [18], the system named is Syndecan-1 (human).
Experiment [19] relates to Synembryn-A (human).
The test system of experiment [20] is T-complex protein 11-like protein 2 (human).

Regarding “GGTGACAGGGGTATGGGGAGGGG [G4-2 biotinylated (Ct1)]”, the binding signal was -0.383 z-score in experiment [1]; -0.386 z-score in [2]; -0.388 z-score in experiment [3]; -0.382 z-score in experiment [4]; -0.376 z-score in [5]; 5.47 z-score in [6]. In addition, the binding signal is 4.07 z-score in experiment [7]; -0.384 z-score in experiment [8]; -0.399 z-score in experiment [9]; -0.386 z-score in [10]; -0.389 z-score in [11]; -0.376 z-score in experiment [12]. Also, the binding signal in [13] is -0.365 z-score; in experiment [14], -0.383 z-score; in experiment [15], 3.61 z-score; in [16] it was -0.401 z-score; in experiment [17] it was -0.369 z-score; in experiment [18], -0.373 z-score. Also, the binding signal is -0.391 z-score in experiment [19] and -0.39 z-score in experiment [20].
